# Data: PubChem BioAssay AID2685 (National Center for Advancing Translational Sciences (NCATS), 2010)
# Where “and” joins values, the source holds several entries; their conditions need not be identical. Equal entries are not always repeated. This is one part of the list. The main result of the screen is listed elsewhere. These columns were measured beside it and carry no call. Most of these compounds were active or inconclusive in the main read-out, so they are no random draw. The note in brackets gives the kind of curve behind each potency; many fits are weak.
# Assay: qHTS Assay for Lipid Storage Modulators in Drosophila S3 Cells;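 for cell number change: cells counted by Cell Tracker Red CMTPX staining in the red channel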
# Conditions: BODIPY lipid droplet fluorescence, 18-24 h; for cell number change: measured here: cell count max response, cells fed with added oleic acid
# Summary of the method: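 Drosophila S3 cells got compounds at several concentrations plus oleic acid (400 uM solution). Laser-scanning cytometry with 488 nm excitation read lipid droplets at 500-530 nm and cells at 575-640 nm. Percent activity was relative to 20 uM Triacsin C.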
# [1] = measured here: cell number channel AC50, cells fed with added oleic acid
# [2] = measured here: lipid fluorescence (Fed channel) AC50, cells fed with added oleic acid
Structure (SMILES),cell number change,AC50 [1],AC50 [2]
COC(=O)c1c(-c2ccc3ccccc3c2)csc1NC(=O)Cc1ccc(OC)c(OC)c1,66.6%,"32.6 µM [rising, single point]",
O=C(O)CCN(CCC(=O)O)c1nnc(SCc2ccccc2)s1,13.4%,,
NC(=O)c1ccsc1NC(=O)CSc1nnc(Nc2ccccc2)s1,-16.9%,,
C/C(=N\NC(=O)c1ccc(C)cc1)c1c(C)[nH]n(-c2ccccc2)c1=O,,,"13 µM [falling, partial curve]"
O=C1Nc2ccccc2N=C(c2ccccc2)c2ccccc21,21.4%,"0.00461 µM [falling, full curve, poor fit]","0.00461 µM [falling, full curve, poor fit]"
O=C(COC(=O)c1ccccc1SCC(=O)NC1CCS(=O)(=O)C1)NC1CCS(=O)(=O)C1 (centres undefined),-10.8%,"6.51 µM [falling, single point]","5.8 µM [falling, partial curve]"
S=c1[nH]nc(-c2ccco2)n1/N=C/c1c(Cl)cccc1Cl,-16%,,"7.31 µM [falling, single point]"
CCC(=O)N1CCc2cc(S(=O)(=O)NCCC(=O)Nc3ccc(OC)cc3)ccc21,17.6%,,
CN(Cc1ccccc1)c1oc(COc2ccccc2F)nc1C#N,23.8%,,"29.1 µM [rising, single point]"
O=[N+]([O-])c1nn(-c2cccc(Cl)c2)n(O)c1=NCc1cccnc1,95.8%,"25.9 µM [rising, single point]","23.1 µM [rising, partial curve]"
CCCCCCn1c(SCC(=O)c2ccccc2)nc2c1c(=O)[nH]c(=O)n2C,34.4%,"6.51 µM [rising, partial curve, poor fit]",
CN(C)S(=O)(=O)c1ccc(F)c(C(=O)Nc2ccccc2C(=O)NC2CC2)c1,-52.3%,,"29.1 µM [falling, single point]"
Cc1nc(SCC(=O)Nc2ccccc2C(F)(F)F)c(C#N)c(C)c1CC(=O)c1ccc(Br)cc1,4.15%,"1.46 µM [rising, partial curve]","1.64 µM [rising, partial curve]"
COc1cc(N2CCCC2)c(OC)cc1/C=C(/C#N)c1ccc(F)cc1,-13.3%,,"16.4 µM [falling, partial curve, poor fit]"
CC(C)c1nnc(SCC(=O)N2CCc3ccccc32)n1N,-29.5%,"0.00461 µM [falling, full curve, poor fit]",
CCOC(=O)C1CCCN(Cc2ccc(OCc3ccccc3)c(OC)c2)C1 (centres undefined),-16.8%,,"6.51 µM [rising, single point]"
CC(C)Oc1ccc(C(=O)Nc2ccc(N3CCCC3)cc2)cc1,49%,"29.1 µM [rising, single point]",
Cc1ccc(OCc2nc(-c3ccccn3)no2)cc1,,"6.51 µM [rising, single point]",
COc1ccc2cc3[n+](cc2c1OC)CCc1cc2c(cc1-3)OCO2,11.1% and 3.89%,"0.231 µM [rising, partial curve]","58 nM [rising, full curve] and 291 nM [rising, full curve]"

Structure (SMILES),cell number change,AC50 [1],AC50 [2]
CCOC(=O)C1C(=O)C=C(Nc2ccccc2F)CC1c1ccccc1 (centres undefined),17.3%,,"32.6 µM [rising, partial curve]"
CNC(=O)NC(=O)COc1ccc2oc3c(c2c1)CCCC3,,,"0.82 µM [falling, full curve]"
CCn1cc(C(=O)NCc2ccc3c(c2)OCO3)c(=O)c2ccc(C)nc21,11.4%,,"0.92 µM [rising, partial curve]"
Cc1ccc(C(=O)Nc2c(C)n(C)n(-c3ccccc3)c2=O)cc1S(=O)(=O)N1CCOCC1,-4.22%,,"18.4 µM [falling, single point]"
Oc1ccc(Cl)cc1CNc1ccccn1,10.5%,,"29.1 µM [rising, single point]"
O=C(Nc1ccc(Cl)c(S(=O)(=O)N2CCCCC2)c1)c1ccncc1,32.5%,"8.2 µM [rising, partial curve, poor fit]",
COc1cc(C(=O)Nc2ccc(-c3nc4cc(C)ccc4o3)c(O)c2)cc(OC)c1OC,6.46%,,"23.1 µM [falling, partial curve, poor fit]"
C=C(C)CSc1nc2ccccc2[nH]1,-4.49%,,"14.6 µM [rising, single point]"
CCOC(=O)c1c(NC(C)=O)sc2c(OC)c(Br)ccc12,-19.8%,,"3.66 µM [rising, partial curve]"
CCCCn1c(=O)[nH]c(=O)c2c(C(=O)OCC)cc(-c3cccs3)nc21,,"0.651 µM [rising, single point]",
CCc1ccc(C(C)NC(=O)c2ncn[nH]2)cc1 (centres undefined),-2.1%,,"3.26 µM [rising, partial curve]"
CC(C)C(OC(=O)c1cccs1)C(=O)NCc1ccc2c(c1)OCO2 (centres undefined),-22.6%,,"29.1 µM [falling, single point]"
COc1ccccc1/C=N/N1CCN(c2ccc(Cl)cc2)CC1,16.1%,,
S=c1[nH]nc(-c2ccncc2)n1/N=C/c1cccc(Cl)c1,10.5%,,"1.16 µM [rising, full curve]"
Cc1cc(C)n2cc(CSc3ncccc3C(=O)O)nc2n1,35.5%,"4.61 µM [rising, full curve, poor fit]",
COc1ccccc1NC(=O)C(Cc1ccc(Cl)cc1)c1nn[nH]n1 (centres undefined),8.71%,,"25.9 µM [falling, partial curve]"
COc1cc(C(=O)NCC(=O)n2nc(C)cc2C)cc(OC)c1OC,-16.5%,,"29.1 µM [falling, single point]"
S=C(N/N=C/c1ccc2ncccc2c1)Nc1cccnc1,20%,,"0.178 µM [rising, full curve, poor fit]"
COC(=O)C(=Cc1ccccc1[N+](=O)[O-])C(=O)OC,-34.9%,"20.6 µM [falling, partial curve]","3.66 µM [falling, single point]"

# Reformatted bar-delimited: entries from further up.
Structure (SMILES) | cell number change | AC50 [1] | AC50 [2]
Oc1ccc(Cl)cc1CNc1ccccn1 | 10.5% |  | 29.1 µM [rising, single point]
COc1cc(C(=O)Nc2ccc(-c3nc4cc(C)ccc4o3)c(O)c2)cc(OC)c1OC | 6.46% |  | 23.1 µM [falling, partial curve, poor fit]
